{"source": "patent US20120157500A1", "about": "“JAK INHIBITION BLOCKS RNA INTERFERENCE ASSOCIATED TOXICITIES” (priority 2009, published 2012)", "key": {"[1]": {"test_system": "LF01-SSB-induced lethality and visible hematuria", "test": "Suppression of LF01-SSB-induced lethality and visible hematuria by inhibitors", "format": "in vivo", "conditions": "rats; for Rescue effect: Death, +inhibitor/−inhibitor / Rescue effect: Red urine, +inhibitor/−inhibitor: inhibitor 1 hr prior to LF01-SSB 9 mg/kg IV, animals with inhibitor/without inhibitor; for Rescue effect: Death, +inhibitor/−inhibitor: deaths until 96 hr; for Rescue effect: Red urine, +inhibitor/−inhibitor: urine collected over 24 hr; for effect on LF01-SSB-induced lethality and visible hematuria: pre-dosed 1 hr before LF01-SSB 9 mpk IV, monitored 96 hr", "description": "Since LF01-siRNA nanoparticles provoked lethality and multifactorial toxicities involving different systems in rats, this offers an in vivo model for pharmacologically probing the mechanism that triggers LF01-siRNA toxicities. We first evaluated the suppression of LF01-SSB-induced lethality and visible hematuria by anti-inflammation drugs and pathway-specific inhibitors of the innate immune system as shown in Table 1. […] Rats were pre-dosed with either a vehicle or one of these reagents using the dosing regimen listed in Table 1, followed by an IV dose of LF01-SSB at 9 mpk 1 hr later, and animals were monitored for lethality for 96 hr. In addition, urine was collected over the course of 24 hr for visual observation of hematuria.\nRats were dosed with PBS or one of these inhibitors 1 hr prior to IV administration of PBS or […] at 9 mg/kg. Urine samples were collected over a course of 24 hr for visual examination of hematuria (red urine). Animals were monitored for lethality until 96 hr post LF01-SSB dose. Unscheduled deaths and cases of visible hematuria in animals receiving LF01-SSB with or without inhibitor pretreatment were scored and presented.\n(§1) Rat studies. All animal studies were conducted at AAALAC-accredited Merck Research laboratories' animal facility located at West Point, Pa., and all study protocols were approved by Merck West Point Institutional Animal Care and Use Committee (IACUC). Female Sprague-Dawley (SD) rats obtained from Charles River were used in these studies at an age of 4-6 weeks and with a body weight of 120-160 grams. Anti-inflammation agents were administrated using the dosing regimens listed in Table 1, 1 hr prior to tail vein injection of liposomal siRNA nanoparticles in PBS in a volume of 0.8 ml under normal pressure. At 3 hr post injection of liposomal siRNA, ˜0.2 ml blood was collected by retro-orbital bleed under anesthesia and processed as plasma for the assessment of cytokines. At 24 hr, blood was collected for evaluation of complete blood cell counts (CBC), coagulation parameters and serum chemistry by venipuncture under anesthesia followed by exsanguination, and tissues from liver, spleen and kidney were collected for determination of SSB and ApoB mRNA levels and TUNEL analysis. For visual examination of urine color, rats were housed in metabolic cages to collect urine over a course of 24 hours after injection of liposomal siRNA nanoparticles. Animals were examined 3 times a day for detection of lethality over a course of 96 hours."}, "[2]": {"test_system": "LF01-SSB-induced toxicities", "test": "LF01-SSB-induced toxicities in rats with or without inhibitor pretreatment", "format": "in vivo", "conditions": "for effect on LF01-SSB-induced coagulopathy (elongation of aPTT): 24 hr", "description": "as §1, with “At 24 hr, blood was collected for evaluation of complete blood cell counts (CBC), coagulation parameters and serum chemistry by venipuncture under anesthesia followed by exsanguination, and tissues from liver, spleen and kidney were collected for determination of SSB and ApoB mRNA levels and TUNEL analysis.” left out\nAnalyses of rat blood samples. Cytokines in plasma were quantified using a microsphere bead-based, multiplexed assay, Milliplex™ RCYTO-80K-PMX23 (Millipore) which allows simultaneous quantification of 23 rat cytokines including IFNγ, IL-6, MCP-1 and TNFα. All CBC, coagulation and serum chemistry parameters were analyzed by Merck Laboratory of Animal Resources and the Safety Assessment Department at West Point, Pa. CBC was determined on whole blood placed in an EDTA-treated tube using an Advia 120 Hematology Analyzer (Siemens). Coagulation parameters in citrated plasma were assessed with a Behring Coagulation System (Siemens) and serum chemistry evaluation was conducted with an Advia 1800 Clinical Chemistry Analyzer (Siemens).\nTUNEL (Terminal deoxynucleotidyl transferase-mediated dUTP-biotin Nick End Labeling). TUNEL staining in tissue sections was performed using a ‘TACS™ TdT-Blue Label in Situ Apoptosis Detection Kit’ (Trevigen). Briefly, 5 μm paraffin embedded sections of liver tissue were deparaffinized, fixed, labeled, and counterstained according to the manufacturer's recommendations. In Situ labeling procedure includes extension of 3′ ends with Biotin-dNTP (TdT Labeling Rxn), followed by additions of Strep-HRP and “TACS-Blue” Label or DAB for color development. TUNEL signal was quantified using the Arial system (Applied Imaging). Quantification of mRNA. qRT-PCR assays were used to quantify SSB and ApoB mRNA levels relative to the housekeeping gene Ppib in lysates prepared from tissues using kits from Applied Biosystems. The catalog numbers are Rn0057621_g1 for SSB, Rn01499054_m1 for ApoB and Rn03302274_m1 for Ppib."}, "[3]": {"conditions": "pre-dosed 1 hr prior to LF01-SSB 3 mg/kg IV"}, "[4]": {"conditions": "pre-treatment 1 hr prior to LF01-SSB 3 mg/kg IV"}}, "note": "At least one compound was matched to its structure with a doubt left."}
{"smiles": "COC[C@H]1OC(=O)c2coc3c2[C@@]1(C)C1=C(C3=O)[C@@H]2CCC(=O)[C@@]2(C)C[C@H]1OC(C)=O", "note": "[Wortmaninn, wortmannin]", "values": [{"measurement": "Rescue effect: Death, +inhibitor/−inhibitor", "setting": "[1]", "result": "2/4"}, {"measurement": "Rescue effect: Red urine, +inhibitor/−inhibitor", "setting": "[1]", "result": "1/4"}, {"measurement": "effect on LF01-siRNA induction of IFNγ", "setting": "[2]; plasma 3 hr post LF01-SSB dose", "result": "abrogated"}, {"measurement": "effect on LF01-SSB-induced coagulopathy (elongation of aPTT)", "setting": "[2]; [3]", "result": "no mitigation effect"}, {"measurement": "effect on LF01-SSB-induced thrombocytopenia", "setting": "[2]; pre-dosed 1 hr prior to LF01-SSB 3 mg/kg IV, platelet counts at 24 hr", "result": "prevented"}]}
{"smiles": "C=CC[C@@H]1/C=C(\\C)C[C@H](C)C[C@H](OC)[C@H]2O[C@@](O)(C(=O)C(=O)N3CCCC[C@H]3C(=O)O[C@H](/C(C)=C/[C@@H]3CC[C@@H](O)[C@H](OC)C3)[C@H](C)[C@@H](O)CC1=O)[C@H](C)C[C@@H]2OC", "note": "[FK506]", "values": [{"measurement": "effect on LF01-SSB-induced lethality and visible hematuria", "setting": "[1]", "result": "no protective activity"}, {"measurement": "Rescue effect: Death, +inhibitor/−inhibitor", "setting": "[1]", "result": "5/4"}, {"measurement": "Rescue effect: Red urine, +inhibitor/−inhibitor", "setting": "[1]", "result": "4/4"}, {"measurement": "suppression of cytokine release, elevation of serum transaminases, thrombocytopenia or coagulopathy induced by LF01-SSB", "setting": "[2]; pretreatment before LF01-SSB 3 mg/kg", "result": "no appreciable suppression"}]}
{"smiles": "CO[C@H]1C[C@@H]2CC[C@@H](C)[C@@](O)(O2)C(=O)C(=O)N2CCCC[C@H]2C(=O)O[C@H]([C@H](C)C[C@@H]2CC[C@@H](O)[C@H](OC)C2)CC(=O)[C@H](C)/C=C(\\C)[C@@H](O)[C@@H](OC)C(=O)[C@H](C)C[C@H](C)/C=C/C=C/C=C/1C", "note": "[Rapamycin]", "values": [{"measurement": "Rescue effect: Death, +inhibitor/−inhibitor", "setting": "[1]", "result": "4/5"}, {"measurement": "Rescue effect: Red urine, +inhibitor/−inhibitor", "setting": "[1]", "result": "4/5"}, {"measurement": "effect on LF01-SSB-induced coagulopathy (elongation of aPTT)", "setting": "[2]; [3]", "result": "no mitigation effect"}]}
{"smiles": "C[C@@H]1C[C@H]2[C@@H]3CCC4=CC(=O)C=C[C@]4(C)[C@@]3(F)[C@@H](O)C[C@]2(C)[C@@]1(O)C(=O)CO", "note": "[Dexamethasone]", "values": [{"measurement": "effect on LF01-SSB-induced lethality and visible hematuria", "setting": "[1]", "result": "completely prevented"}, {"measurement": "Rescue effect: Death, +inhibitor/−inhibitor", "setting": "[1]", "result": "0/5"}, {"measurement": "Rescue effect: Red urine, +inhibitor/−inhibitor", "setting": "[1]", "result": "0/5"}, {"measurement": "effect on LF01-SSB toxic responses (cytokine induction, ALT and AST elevation, thrombocytopenia, elongation of aPTT, hepatic and splenic cell death)", "setting": "[2]; [4]", "result": "suppressed all toxic responses"}, {"measurement": "lethality after pre-treatment", "setting": "[2]; [4]", "result": "no death"}]}
